Measurements taken from patent publication US8138211B2, “Isothiazolyloxyphenylamidines and their use as fungicides” (Bayer Cropscience AG, priority 2009, dated 2012).
Some entries share one result that the patent states for a list of compounds. At least one compound was matched to its structure with a doubt left.

Experiments:
[1] = system: Puccinia recondita; assay: Puccinia test (wheat)/protective; assay type: in vivo; conditions: active compound concentration of 500 ppm, protective, evaluation 7-9 days after inoculation
[2] = system: Sphaerotheca fuliginea; assay: Sphaerotheca test (cucumber)/protective; assay type: in vivo; conditions: active compound concentration of 500 ppm, protective, evaluation 7 days after inoculation

Compound	efficacy [1]	efficacy [2]
CCN(C)/C=N/c1cc(Cl)c(Oc2snc(-c3ccccc3)c2Br)cc1C [No. 54, N′-{4-[(4-bromo-3-phenyl-1,2-thiazol-5-yl)oxy]-5-chloro-2-methylphenyl}-N-ethyl-N-methylimidoformamide]	≥ 70%	–
CCc1nsc(Oc2cc(C)c(/N=C/N3CCCCC3)cc2C)c1C#N [compound 2]	≥ 70%	–
CCc1nsc(Oc2cc(Cl)c(N=CN(C)CC)cc2C)c1C#N [compound 9]	≥ 70%	≥ 70%
CCCN(C)C=Nc1cc(C)c(Oc2snc(-c3ccc(C(C)(C)C)cc3)c2C#N)cc1C [compound 29]	≥ 70%	≥ 70%
C=CCN(C)C=Nc1cc(C)c(Oc2snc(-c3ccc(C(C)(C)C)cc3)c2C#N)cc1C [compound 30]	≥ 70%	≥ 70%
CCCN(C)C=Nc1cc(C)c(Oc2snc(-c3ccc(F)cc3)c2C#N)cc1Cl [compound 35]	≥ 70%	≥ 70%
Cc1cc(Oc2snc(-c3ccc(F)cc3)c2C#N)c(Cl)cc1N=CN(C)C [compound 36]	≥ 70%	≥ 70%
CCCN(C)C=Nc1cc(Cl)c(Oc2snc(-c3ccc(F)cc3)c2C#N)cc1C [compound 38]	≥ 70%	≥ 70%
Cc1cccc(-c2nsc(Oc3cc(C)c(N=CN(C)C)cc3Cl)c2C#N)c1 [compound 39]	≥ 70%	≥ 70%
CCCN(C)C=Nc1cc(Cl)c(Oc2snc(-c3cccc(C)c3)c2C#N)cc1C [compound 41]	≥ 70%	≥ 70%
CCCN(C)C=Nc1cc(C)c(Oc2cc(-c3ccccc3)ns2)cc1C [compound 44]	≥ 70%	≥ 70%
Cc1cc(N=CN(C)C)c(Cl)cc1Oc1cc(-c2ccccc2)ns1 [compound 45]	≥ 70%	≥ 70%
CCCN(C)C=Nc1cc(C)c(Oc2cc(-c3ccccc3)ns2)cc1Cl [compound 47]	≥ 70%	≥ 70%
Cc1cc(Oc2snc(-c3ccccc3)c2Cl)c(C)cc1N=CN(C)C(C)C [compound 49]	≥ 70%	–
CCN(C)C=Nc1cc(Cl)c(Oc2snc(-c3ccccc3)c2Cl)cc1C [compound 51]	≥ 70%	–
Cc1cc(Oc2snc(-c3ccccc3)c2Cl)c(Cl)cc1N=CN(C)C(C)C [compound 52]	≥ 70%	–
Cc1cc(Oc2snc(-c3ccccc3)c2Br)c(Cl)cc1N=CN(C)C(C)C [compound 55]	≥ 70%	–
Cc1cc(N=CN(C)C)c(Cl)cc1Oc1snc(-c2ccc(F)cc2)c1C#N [compound 57]	≥ 70%	≥ 70%
Cc1cc(Oc2snc3ccccc23)c(C)cc1N=CN(C)C [compound 60]	≥ 70%	≥ 70%
CCCN(C)C=Nc1cc(C)c(Oc2snc3ccccc23)cc1C [compound 61]	≥ 70%	≥ 70%
CCN(C)C=Nc1cc(F)c(Oc2snc(C(C)(C)C)c2C#N)cc1F [compound 82]	≥ 70%	–
CCN(C)C=Nc1cc(Cl)c(Oc2snc(C)c2Cl)cc1C [compound 85]	≥ 70%	≥ 70%
Cc1cc(N=CN(C)C)c(Cl)cc1Oc1snc(-c2ccccc2Cl)c1C#N [compound 90]	≥ 70%	≥ 70%

Compound	efficacy [1]	efficacy [2]
Cc1cc(N=CN(C)C(C)C)c(Cl)cc1Oc1snc(-c2ccccc2Cl)c1C#N [compound 92]	≥ 70%	≥ 70%
Cc1cc(Oc2snc(-c3ccccc3C)c2C#N)c(Cl)cc1N=CN(C)C [compound 93]	≥ 70%	–
Cc1cc(Oc2snc(-c3ccccc3C)c2C#N)c(Cl)cc1N=CN(C)C(C)C [compound 94]	≥ 70%	≥ 70%
Cc1cc(N=CN(C)C)c(Cl)cc1Oc1snc(-c2ccccc2C)c1C#N [compound 115]	≥ 70%	≥ 70%
CCN(C)C=Nc1cc(C)c(Oc2snc(-c3ccccc3C)c2C#N)cc1Cl [compound 131]	≥ 70%	≥ 70%
Cc1cc(N=CN(C)C)c(Cl)cc1Oc1snc(-c2ccccc2F)c1C#N [compound 133]	≥ 70%	≥ 70%
Cc1cc(Oc2snc(-c3ccccc3Cl)c2C#N)c(Cl)cc1N=CN(C)C(C)C [compound 134]	≥ 70%	≥ 70%
Cc1cc(N=CN(C)C(C)C)c(Cl)cc1Oc1snc(-c2ccccc2F)c1C#N [compound 135]	≥ 70%	≥ 70%
Cc1cc(Oc2snc(-c3ccccc3F)c2C#N)c(Cl)cc1N=CN(C)C [compound 137]	≥ 70%	≥ 70%
Cc1cc(Oc2snc(-c3ccccc3F)c2C#N)c(Cl)cc1N=CN(C)C(C)C [compound 138]	≥ 70%	≥ 70%
Cc1cc(N=CN(C)C)c(Cl)cc1Oc1snc(C2(Cl)CC2)c1C#N [compound 140]	≥ 70%	≥ 70%
Cc1cc(N=CN(C)C(C)C)c(Cl)cc1Oc1snc(C2(Cl)CC2)c1C#N [compound 141]	≥ 70%	≥ 70%
Cc1cc(Oc2snc(C3(Cl)CC3)c2C#N)c(Cl)cc1N=CN(C)C [compound 143]	≥ 70%	≥ 70%
CCOC(=O)c1c(C)nsc1Oc1cc(C)c(/N=C/N2CCCCC2)cc1C [compound 144]	≥ 70%	≥ 70%
CCOC(=O)c1c(C)nsc1Oc1cc(C)c(/N=C/N(C)C(C)C)cc1C [compound 146]	≥ 70%	≥ 70%
CCOC(=O)c1c(C)nsc1Oc1cc(Cl)c(/N=C/N(C)C(C)C)cc1C [compound 148]	≥ 70%	≥ 70%
CCOC(=O)c1c(C)nsc1Oc1cc(C)c(/N=C/N2CCCCC2)cc1Cl [compound 149]	≥ 70%	≥ 70%
CCOC(=O)c1c(C)nsc1Oc1cc(C)c(/N=C/N(C)CC)cc1Cl [compound 150]	≥ 70%	≥ 70%
CCOC(=O)c1c(C)nsc1Oc1cc(C)c(/N=C/N(C)C(C)C)cc1Cl [compound 151]	≥ 70%	≥ 70%
CCOC(=O)c1c(C)nsc1Oc1cc(Cl)c(/N=C/N2CCCCC2)cc1C [compound 152]	≥ 70%	≥ 70%
Cc1ccc(-c2nsc(Oc3cc(C)c(N=CN(C)C)cc3Cl)c2C#N)cc1 [compound 161]	≥ 70%	≥ 70%
Cc1cc(N=CN(C)C)c(Cl)cc1Oc1snc(-c2ccc(Cl)cc2Cl)c1C#N [compound 205]	≥ 70%	≥ 70%
CCN(C)C=Nc1cc(C)c(Oc2snc(-c3ccc(Cl)cc3Cl)c2C#N)cc1Cl [compound 206]	≥ 70%	≥ 70%

Compound	efficacy [1]	efficacy [2]
Cc1cc(Oc2snc(-c3ccc(Cl)cc3Cl)c2C#N)c(Cl)cc1N=CN(C)C [compound 217]	≥ 70%	≥ 70%
Cc1cc(N=CN(C)C)c(Cl)cc1Oc1snc(-c2ccc(C(F)(F)F)cc2)c1C#N [compound 218]	≥ 70%	≥ 70%
Cc1cc(Oc2snc(-c3ccc(C(F)(F)F)cc3)c2C#N)c(Cl)cc1N=CN(C)C [compound 222]	≥ 70%	≥ 70%
Cc1cc(Oc2snc(-c3ccc(Cl)cc3Cl)c2C#N)c(Cl)cc1N=CN(C)C(C)C [compound 225]	≥ 70%	≥ 70%
Cc1cc(N=CN(C)C)c(Cl)cc1Oc1snc(C(C)C)c1C#N [compound 226]	≥ 70%	≥ 70%
Cc1cc(N=CN(C)C)c(Cl)cc1Oc1snc(C(C)(C)F)c1C#N [compound 230]	≥ 70%	≥ 70%
Cc1cc(Oc2snc(C(C)(C)F)c2C#N)c(Cl)cc1N=CN(C)C(C)C [compound 232]	≥ 70%	≥ 70%
Cc1cc(Oc2snc(C(C)C)c2C#N)c(Cl)cc1N=CN(C)C(C)C [compound 235]	≥ 70%	≥ 70%
Cc1cc(N=CN(C)C(C)C)c(Cl)cc1Oc1snc(-c2ccc(F)cc2Cl)c1C#N [compound 240]	≥ 70%	≥ 70%
Cc1cc(Oc2snc(-c3ccc(F)cc3Cl)c2C#N)c(Cl)cc1N=CN(C)C(C)C [compound 244]	≥ 70%	≥ 70%
Cc1cc(Oc2snc(-c3ccc(F)cc3Cl)c2C#N)c(Cl)cc1N=CN(C)C [compound 245]	≥ 70%	≥ 70%
COc1ccccc1-c1nsc(Oc2cc(C)c(N=CN(C)C(C)C)cc2C)c1C#N [compound 247]	≥ 70%	≥ 70%
Cc1cc(N=CN(C)C)c(Cl)cc1Oc1snc(-c2ccc(F)cc2Cl)c1C#N [compound 252]	≥ 70%	–
CCN(C)C=Nc1cc(C)c(Oc2snc3c(Cl)ccc(Cl)c23)cc1C [compound 264]	≥ 70%	–
Cc1cc(Oc2snc3c(Cl)ccc(Cl)c23)c(C)cc1N=CN(C)C [compound 266]	≥ 70%	–
Cc1cc(Oc2snc3cccc(Cl)c23)c(C)cc1N=CN(C)C [compound 269]	≥ 70%	–
CCC1(c2nsc(Oc3cc(C)c(N=CN(C)C(C)C)cc3C)c2C#N)C(C)C1(Cl)Cl (stereo not shown) [compound 276]	≥ 70%	–
CCN(C)C=Nc1cc(C)c(Oc2snc3c(Cl)ccc(Cl)c23)cc1Cl [compound 278]	≥ 70%	–
Cc1cc(N=CN(C)C(C)C)c(Cl)cc1Oc1snc2c(Cl)ccc(Cl)c12 [compound 279]	≥ 70%	–
Cc1cc(N=CN(C)C(C)C)c(Cl)cc1Oc1snc2cccc(Cl)c12 [compound 280]	≥ 70%	–
Cc1cc(N=CN(C)C)c(Cl)cc1Oc1snc2cccc(Cl)c12 [compound 281]	≥ 70%	–
CCN(C)C=Nc1cc(C)c(Oc2snc(Br)c2C#N)cc1C [compound 288]	–	≥ 70%
